Source: paper PMC3733081 (Journal of chemical information and modeling, 2013)

Test: n-hexadecane/water

COC(=O)C1=C(C)NC(C)=C(C(=O)OC)C1c1ccccc1[N+](=O)[O-] [nifedipine, reference compound]
l1 (rate parameter of transport from water to C16): (7.229±2.679)×10^−1 cm/h
l2 (rate parameter of transport from C16 to water): (1.498±0.418)×10^−1 cm/h
